Measured values taken from paper PMC7933155, “IL-23p19 and CD5 antigen-like form a possible novel heterodimeric cytokine and contribute to experimental autoimmune encephalomyelitis development” (Scientific Reports, 2021).
No constants are given. Whether binding was seen depends on the method and setting. For part of these data: In cells and extracts the contact can be indirect. Some binding calls cover weakened binding; strength is not graded here. For part of these data: Tags and fused reporters may be left off the sequences shown.

What was measured:
[1] = target: T1, mouse CD5 antigen-like with c-MYC tag (pCMV3-CD5L-c-MYC) (mouse) (UniProt Q9QWK4); experiment: ELISA; p19/CD5L-specific sandwich ELISA (anti-p19 5B2 capture, biotin-conjugated anti-CD5L detection) on culture supernatants of transiently transfected HEK293T cells, 3 days
T1 sequence: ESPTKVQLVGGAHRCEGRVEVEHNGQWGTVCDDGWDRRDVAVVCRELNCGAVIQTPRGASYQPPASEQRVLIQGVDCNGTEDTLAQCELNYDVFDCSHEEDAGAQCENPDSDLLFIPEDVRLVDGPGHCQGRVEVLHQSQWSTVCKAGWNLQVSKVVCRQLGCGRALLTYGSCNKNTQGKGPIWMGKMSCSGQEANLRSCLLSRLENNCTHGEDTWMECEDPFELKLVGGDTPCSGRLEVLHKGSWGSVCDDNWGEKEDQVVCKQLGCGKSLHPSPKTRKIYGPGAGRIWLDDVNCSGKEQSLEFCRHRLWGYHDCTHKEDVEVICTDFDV

[2] = target: T1, mouse CD5 antigen-like with c-MYC tag (pCMV3-CD5L-c-MYC) (mouse); experiment: co-IP; HEK293-F cells transiently cotransfected, 3 days; cell lysates (1% Nonidet P-40, 10 mM Tris-HCl pH 7.5, 150 mM NaCl, 1 mM EDTA) or culture supernatants; IP with anti-FLAG (M2) or anti-c-MYC (9E10) on protein G-Sepharose, 2 h to overnight at 4 °C; reducing SDS-PAGE; western blot with biotin-conjugated anti-c-MYC or anti-p19
[3] = target: T2, mouse IL-12/IL-23 p40 with c-MYC tag (mouse) (UniProt P43432); experiment: as above
T2 sequence: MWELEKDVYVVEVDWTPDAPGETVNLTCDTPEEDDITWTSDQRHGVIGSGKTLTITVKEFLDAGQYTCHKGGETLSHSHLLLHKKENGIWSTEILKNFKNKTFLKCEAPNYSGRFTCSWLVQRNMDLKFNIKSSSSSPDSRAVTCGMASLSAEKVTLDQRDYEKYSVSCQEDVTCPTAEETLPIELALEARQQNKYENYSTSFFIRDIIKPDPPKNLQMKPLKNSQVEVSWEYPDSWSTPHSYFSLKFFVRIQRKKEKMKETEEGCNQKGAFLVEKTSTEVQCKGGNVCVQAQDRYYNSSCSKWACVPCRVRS

[4] = target: T3, endogenous mouse CD5 antigen-like (mouse (endogenous in CD4+ T cells and serum of C57BL/6 mice)) (UniProt Q9QWK4); experiment: ELISA; p19/CD5L-specific sandwich ELISA on serum of WT mice taken over time during EAE
T3 sequence: T1 sequence

[5] = target: T3, endogenous mouse CD5 antigen-like (mouse (endogenous in CD4+ T cells and serum of C57BL/6 mice)); experiment: ELISA; p19/CD5L-specific sandwich ELISA on culture supernatants of naive CD4+ T cells activated under Th, Th0 and pathogenic Th17-polarizing conditions for 3 days, concentrated about 10 times
[6] = target: T3, endogenous mouse CD5 antigen-like (mouse (endogenous in CD4+ T cells and serum of C57BL/6 mice)); experiment: co-IP; culture supernatant of naive CD4+ T cells activated with anti-CD3 and anti-CD28 under pathogenic Th17-polarizing conditions for 3 days, concentrated about 8 times; IP with anti-CD5L (D-11); western blot with biotin-conjugated anti-p19

Measured: binding

B1: mouse IL-23 p19 with C-terminal 3×FLAG (p3×FLAG-CMV-14-p19) (protein, UniProt Q9EQ14 22-196)
chain: VPRSSSPDWAQCQQLSRNLCMLAWNAHAPAGHMNLLREEEDEETKNNVPRIQCEDGCDPQGLKDNSQFCLQRIRQGLAFYKHLLDSDIFKGEPALLPDSPMEQLHTSLLGLSQLLQPEDHPRETQQMPSLSSSQQWQRPLLRSKILRSLQAFLAIAARVFAHGAATLTEPLVPTA
binds: [1] | [2] | [3]

B2: endogenous mouse IL-23 p19 (protein, UniProt Q9EQ14 22-196)
chain: B1 chain
binds: [4] | [5] | [6]
